The source of these data is patent US20130333059A1 (Johns Hopkins, published 2013).

Sequences of proteins named here, by UniProt entry; tags and fusion partners are left off.
UniProt P38398, whole entry: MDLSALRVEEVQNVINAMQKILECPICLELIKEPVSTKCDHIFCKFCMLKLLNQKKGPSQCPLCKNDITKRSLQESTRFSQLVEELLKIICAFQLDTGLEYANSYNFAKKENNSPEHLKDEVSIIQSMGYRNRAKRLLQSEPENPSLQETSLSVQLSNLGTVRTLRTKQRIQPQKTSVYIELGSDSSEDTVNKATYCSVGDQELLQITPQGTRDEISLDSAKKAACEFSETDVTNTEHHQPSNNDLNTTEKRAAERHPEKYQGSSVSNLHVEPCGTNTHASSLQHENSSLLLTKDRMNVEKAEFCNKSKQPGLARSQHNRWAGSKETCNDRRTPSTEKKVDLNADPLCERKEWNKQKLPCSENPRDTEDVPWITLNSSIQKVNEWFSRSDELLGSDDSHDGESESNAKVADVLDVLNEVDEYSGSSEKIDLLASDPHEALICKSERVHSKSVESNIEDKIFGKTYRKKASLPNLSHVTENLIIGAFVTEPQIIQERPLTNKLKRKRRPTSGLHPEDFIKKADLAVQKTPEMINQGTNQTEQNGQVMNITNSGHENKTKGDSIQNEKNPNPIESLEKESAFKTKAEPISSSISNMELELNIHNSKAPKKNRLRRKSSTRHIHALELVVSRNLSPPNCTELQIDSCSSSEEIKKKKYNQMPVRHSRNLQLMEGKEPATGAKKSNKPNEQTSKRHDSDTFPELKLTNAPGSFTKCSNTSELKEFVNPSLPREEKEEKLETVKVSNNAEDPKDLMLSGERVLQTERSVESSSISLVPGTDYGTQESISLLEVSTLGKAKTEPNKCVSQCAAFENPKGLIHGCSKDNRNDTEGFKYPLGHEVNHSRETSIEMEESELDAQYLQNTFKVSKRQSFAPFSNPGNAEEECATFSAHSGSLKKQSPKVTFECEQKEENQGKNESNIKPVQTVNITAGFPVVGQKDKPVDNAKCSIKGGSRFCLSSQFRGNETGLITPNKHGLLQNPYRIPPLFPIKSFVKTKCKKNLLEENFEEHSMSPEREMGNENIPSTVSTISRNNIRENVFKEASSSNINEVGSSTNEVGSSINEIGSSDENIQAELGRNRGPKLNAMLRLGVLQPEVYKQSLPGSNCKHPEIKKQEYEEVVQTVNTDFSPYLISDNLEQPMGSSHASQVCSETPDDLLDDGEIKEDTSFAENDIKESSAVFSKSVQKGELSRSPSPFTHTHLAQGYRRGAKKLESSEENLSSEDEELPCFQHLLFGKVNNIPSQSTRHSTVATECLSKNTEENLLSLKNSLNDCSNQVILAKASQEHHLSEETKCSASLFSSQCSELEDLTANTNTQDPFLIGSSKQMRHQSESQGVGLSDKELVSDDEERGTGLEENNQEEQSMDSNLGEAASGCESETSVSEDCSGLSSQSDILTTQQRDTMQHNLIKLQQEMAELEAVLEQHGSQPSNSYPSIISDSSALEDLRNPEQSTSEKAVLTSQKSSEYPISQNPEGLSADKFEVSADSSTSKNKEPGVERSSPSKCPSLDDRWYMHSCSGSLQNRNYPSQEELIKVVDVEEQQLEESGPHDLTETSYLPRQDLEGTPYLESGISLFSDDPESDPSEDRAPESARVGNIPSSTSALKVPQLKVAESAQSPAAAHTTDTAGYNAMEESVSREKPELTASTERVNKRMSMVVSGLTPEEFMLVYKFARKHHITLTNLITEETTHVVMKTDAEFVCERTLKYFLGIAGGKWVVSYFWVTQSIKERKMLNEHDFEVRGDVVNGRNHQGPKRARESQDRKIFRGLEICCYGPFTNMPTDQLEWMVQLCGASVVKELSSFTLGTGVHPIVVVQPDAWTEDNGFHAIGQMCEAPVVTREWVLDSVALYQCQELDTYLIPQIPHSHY

In one experiment the target is T1, BRCA-1 (UniProt P38398 1-1863, limits assumed).
T1 construct: Specificity control
Briefly: co-immunoprecipitation (data not shown).

In the next experiment the target is T2, E2F1 (UniProt Q01094 1-437, limits assumed).
T2 construct: Specificity control
T2 sequence (looked up): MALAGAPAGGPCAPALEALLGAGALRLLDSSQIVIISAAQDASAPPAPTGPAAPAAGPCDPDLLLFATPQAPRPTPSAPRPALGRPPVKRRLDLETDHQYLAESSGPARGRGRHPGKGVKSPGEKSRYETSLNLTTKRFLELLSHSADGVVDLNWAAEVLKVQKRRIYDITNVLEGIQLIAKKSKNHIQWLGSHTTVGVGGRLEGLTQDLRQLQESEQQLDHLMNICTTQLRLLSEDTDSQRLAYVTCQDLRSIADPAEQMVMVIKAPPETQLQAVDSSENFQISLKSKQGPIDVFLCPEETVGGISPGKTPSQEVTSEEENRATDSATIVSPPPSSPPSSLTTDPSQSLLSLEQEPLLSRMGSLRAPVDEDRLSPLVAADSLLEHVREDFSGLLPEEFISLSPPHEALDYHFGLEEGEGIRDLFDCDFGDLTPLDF
The experiment is described as follows: co-immunoprecipitation (data not shown).

B1: HOXB7 (construct not stated) (other, UniProt P09629 1-217, looked up)
chain: MSSLYYANTLFSKYPASSSVFATGAFPEQTSCAFASNPQRPGYGAGSGASFAASMQGLYPGGGGMAGQSAAGVYAAGYGLEPSSFNMHCAPFEQNLSGVCPGDSAKAAGAKEQRDSDLAAESNFRIYPWMRSSGTDRKRGRQTYTRYQTLELEKEFHYNRYLTRRRRIEIAHTLCLTERQIKIWFQNRRMKWKKENKTAGPGTTGQDRAEAEEEEEE
notes: also called HOXB7 immunocomplexes
Regarding B1, the binding result with BRCA-1 and with E2F1 was “no binding” each time.
